Measurements published in the supplement of paper PMC6331611.
Values joined by “and” are separate entries in the source; they are usually repeats but may differ in a detail not shown here. Identical values can stand only once. ± gives the standard deviation of the averaged measurements. Whole data set: some 1,600 compounds, median “normalized intracellular growth (luminescence, IQM-normalized) in RAW264.7 macrophages” near 1, cut for the lowest 2% near 0.43. The list shows a part of the results.

Tested on: Salmonella enterica serovar Typhimurium SL1344
Test: normalized intracellular growth (luminescence, IQM-normalized) in RAW264.7 macrophages (fraction of plate interquartile mean); higher = more bacterial growth (less inhibition)
Settings: 10 µM

SMILES | normalized intracellular growth (time point: T3 (3 h)) | normalized intracellular growth (time point: Tfinal (~6 h))
CCN(CC)C(=O)N1CCN(C)CC1 | 0.964 ± 0.047 | 1.15 ± 0.056
CC[C@]1(O)C[C@@H]2CN(CCc3c([nH]c4ccccc34)[C@@](C(=O)OC)(c3cc4c(cc3OC)N(C)[C@H]3[C@@](O)(C(=O)OC)[C@H](OC(C)=O)[C@]5(CC)C=CCN6CC[C@]43[C@@H]65)C2)C1 | 1.04 ± 0.094 | 1.12 ± 0.067
CC(CCc1ccc(O)cc1)NCC(O)c1ccc(O)cc1 (stereo unspecified) | 1.06 ± 0.052 | 0.917 ± 0.087
CC(=O)[C@H]1CC[C@H]2[C@@H]3CC=C4C[C@@H](OC(=O)CCC(=O)O)CC[C@]4(C)[C@H]3CC[C@]12C | 0.966 ± 0.034 | 0.948 ± 0.2
CCN(CCCc1ccccc1)CCCc1ccccc1 | 1.04 ± 0.05 | 1.04 ± 0.1
CCCCC(CC)COC(=O)c1ccccc1O (stereo unspecified) | 1.05 ± 0.055 | 0.89 ± 0.17
CCC(=O)NCC[C@@H]1CCc2ccc3c(c21)CCO3 | 1.022 ± 0.01 | 0.8654 ± 0.0019
CNC(=O)c1c(I)c(NC(C)=O)c(I)c(C(=O)O)c1I | 1.01 ± 0.056 | 0.883 ± 0.21
OCC(O)CN1CCN(c2ccccc2)CC1 (stereo unspecified) | 1.03 ± 0.058 | 1.03 ± 0.17
CN(C)CCCC1(c2ccc(F)cc2)OCc2cc(C#N)ccc21 (stereo unspecified) | 1.04 ± 0.12 | 0.857 ± 0.19
CCCC(CCC)C(=O)O | 0.927 ± 0.017 | 0.964 ± 0.078
Cc1onc(-c2ccccc2)c1C(=O)N[C@@H]1C(=O)N2[C@@H]1SC(C)(C)[C@@H]2C(=O)O | 0.987 ± 0.046 | 1.27 ± 0.15
Cc1c(OCC(F)(F)F)ccnc1C[S+]([O-])c1nc2ccccc2[nH]1 (stereo unspecified) | 0.98 ± 0.034 | 1.08 ± 0.12
O=C([O-])C(O)[C@H](O)[C@@H](O)[C@H](O)[C@H](O)CO.O=C([O-])C(O)[C@H](O)[C@@H](O)[C@H](O)[C@H](O)CO.[Ca+2] (stereo partly specified) | 1.04 ± 0.019 | 1.06 ± 0.18
CC(C)(C)NCC(O)c1ccc(O)c(CO)c1 (stereo unspecified) | 1 ± 0.027 | 0.871 ± 0.13
CC(O)CC(C)(C)O (stereo unspecified) | 1.05 ± 0.086 | 0.769 ± 0.19
COc1ccc2cc1Oc1ccc(cc1)C[C@H]1c3c(cc4c(c3Oc3cc5c(cc3OC)CCN(C)[C@@H]5C2)OCO4)CCN1C | 0.485 ± 0.17 | 0.75 ± 0.025

SMILES | normalized intracellular growth (time point: T3 (3 h)) | normalized intracellular growth (time point: Tfinal (~6 h))
CCOC(=O)c1ccc(O)cc1 | 1.01 ± 0.069 | 0.638 ± 0.09
CC1CCc2cc(F)cc3c(=O)c(C(=O)O)cn1c23 (stereo unspecified) | 0.937 ± 0.026 | 0.389 ± 0.025
CCCCOc1ccc(OCCCN2CCOCC2)cc1 | 1.08 ± 0.075 | 0.935 ± 0.094
CC(C)[C@H]1CC[C@H](C(=O)N[C@H](Cc2ccccc2)C(=O)O)CC1 | 0.94 ± 0.19 | 1 ± 0.06
CC(=O)Oc1cccc(C(=O)O)c1OC(C)=O | 1.01 ± 0.04 | 0.915 ± 0.16
CC(C)c1nc(CN(C)C(=O)N[C@H](C(=O)N[C@@H](Cc2ccccc2)C[C@H](O)[C@H](Cc2ccccc2)NC(=O)OCc2cncs2)C(C)C)cs1 | 0.997 ± 0.012 | 1.22 ± 0.048
COc1ccccc1OCCNCC(O)COc1cccc2[nH]c3ccccc3c12 (stereo unspecified) | 1 and 1.02 | 1.25 and 1.09
S=P(N1CC1)(N1CC1)N1CC1 | 1.01 ± 0.023 | 1.07 ± 0.31
CCN1CCCC1CNC(=O)c1cc(S(=O)(=O)CC)c(N)cc1OC (stereo unspecified) | 1.13 ± 0.045 | 0.959 ± 0.091
Nc1nc(N)nc(-c2cc(Cl)ccc2Cl)n1 | 1.05 ± 0.041 | 0.97 ± 0.21
CC(CN1c2ccccc2Sc2ccccc21)N(C)C (stereo unspecified) | 0.846 ± 0.036 | 1.19 ± 0.077
NS(=O)(=O)c1cc2c(cc1C(F)(F)F)NC(Cc1ccccc1)NS2(=O)=O (stereo unspecified) | 1.06 ± 0.051 | 0.984 ± 0.01
O=C(c1ccc(OCCN2CCCCC2)cc1)c1c(-c2ccc(O)cc2)sc2cc(O)ccc12 | 1.05 ± 0.084 | 0.901 ± 0.19
CCn1cc(C(=O)O)c(=O)c2cc(F)c(N3CCNCC3)cc21 | 1.07 ± 0.028 | 1.19 ± 0.029
CCOC(=O)C1=C(C)NC(C)=C(C(=O)OC)C1c1cccc([N+](=O)[O-])c1 (stereo unspecified) | 0.984 ± 0.069 | 1.11 ± 0.26
CC1(C)S[C@@H]2[C@H](N3C(=O)[C@@H](c4ccccc4)NC3(C)C)C(=O)N2[C@H]1C(=O)O | 1 ± 0.031 | 0.974 ± 0.056
